Results from cells or extracts need not show a direct contact.
Assays:
ESRRG (Homo sapiens) = ESRRG (Homo sapiens) (UniProt P62508); assay: SELEX; conditions: 25 mM HEPES pH 7.4, 80 mM KCl, 0.2 mM EDTA, 1 mM MgCl2, 0.1 mM ZnSO4, 2.5 mM DTT, 50 ng/ul poly dI-dC, 0.1% BSA, 1 h room temperature, ligand 100 nM when included, high values mean tight binding, protein in a lysate after overexpression, protein details: HaloTag, only the motif is given
ESRRB (Homo sapiens) = assay: SELEX; conditions: no ligand; 25 mM HEPES pH 7.4, 80 mM KCl, 0.2 mM EDTA, 1 mM MgCl2, 0.1 mM ZnSO4, 2.5 mM DTT, 50 ng/ul poly dI-dC, 0.1% BSA, 1 h room temperature; ligand 100 nM when included; high values mean tight binding; protein in a lysate after overexpression; protein details: HaloTag; only the motif is given

Chains of the proteins cited; added tags and fusions are not shown. A change or cut given only in a name is not applied to a line headed by its entry. A line that says so, or that is headed by a name, gives the form on record, which may keep a tag or linker.
UniProt P62508: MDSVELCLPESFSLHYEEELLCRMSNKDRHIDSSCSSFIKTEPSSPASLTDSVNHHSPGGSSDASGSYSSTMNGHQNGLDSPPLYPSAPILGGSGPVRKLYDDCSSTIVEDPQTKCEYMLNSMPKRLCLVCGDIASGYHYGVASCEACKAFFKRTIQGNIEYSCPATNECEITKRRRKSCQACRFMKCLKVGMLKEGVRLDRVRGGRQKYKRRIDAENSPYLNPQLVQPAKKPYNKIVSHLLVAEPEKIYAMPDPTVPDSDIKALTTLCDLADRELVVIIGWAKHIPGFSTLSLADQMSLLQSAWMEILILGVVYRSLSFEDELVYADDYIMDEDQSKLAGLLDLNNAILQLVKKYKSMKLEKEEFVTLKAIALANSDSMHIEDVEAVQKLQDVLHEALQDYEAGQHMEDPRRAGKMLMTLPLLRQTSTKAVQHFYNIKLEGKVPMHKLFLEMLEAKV
ESRRB (Homo sapiens), one chain, as listed by the source: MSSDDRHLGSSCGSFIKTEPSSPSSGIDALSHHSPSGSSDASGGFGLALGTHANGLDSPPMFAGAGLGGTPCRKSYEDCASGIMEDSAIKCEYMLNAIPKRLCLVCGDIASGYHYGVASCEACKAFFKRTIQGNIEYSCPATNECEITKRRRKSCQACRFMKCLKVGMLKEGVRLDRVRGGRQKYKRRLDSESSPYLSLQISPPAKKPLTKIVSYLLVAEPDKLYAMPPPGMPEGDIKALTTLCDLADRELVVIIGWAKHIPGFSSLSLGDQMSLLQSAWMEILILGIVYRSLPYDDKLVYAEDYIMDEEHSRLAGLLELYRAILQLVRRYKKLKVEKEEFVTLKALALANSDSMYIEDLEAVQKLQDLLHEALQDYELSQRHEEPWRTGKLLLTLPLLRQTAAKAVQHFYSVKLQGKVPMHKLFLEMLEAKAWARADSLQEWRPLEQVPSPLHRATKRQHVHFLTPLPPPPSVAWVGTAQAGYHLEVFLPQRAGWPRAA

Sequence	binding signal (fold enrichment) (ESRRG (Homo sapiens); ligand #4 of Fig. 1b, 100 nM)	binding signal (fold enrichment) (ESRRB (Homo sapiens))	binding signal (fold enrichment) (ESRRG (Homo sapiens); no ligand)
AGGTCAC (double strand) [AGGTCACNNNNN]	28.1		
AGGTCAT (double strand) [AGGTCATNNNNN]		356	46.5

— paper PMC10345098
